Laboratory results reported in paper PMC4099074, “Palmitoylation of Gephyrin Controls Receptor Clustering and Plasticity of GABAergic Synapses” (PLoS Biology, 2014).
These are yes or no findings as the source states them, for the method shown. Binding seen in cells or lysates may run through a third protein. Some results given as binding are weak or reduced against the parent protein; the word gives no strength. Sequences can lack the tags named with a protein.

Protein sequences, listed by entry. Tags and fused reporters are not part of them.
UniProt Q9ESG8: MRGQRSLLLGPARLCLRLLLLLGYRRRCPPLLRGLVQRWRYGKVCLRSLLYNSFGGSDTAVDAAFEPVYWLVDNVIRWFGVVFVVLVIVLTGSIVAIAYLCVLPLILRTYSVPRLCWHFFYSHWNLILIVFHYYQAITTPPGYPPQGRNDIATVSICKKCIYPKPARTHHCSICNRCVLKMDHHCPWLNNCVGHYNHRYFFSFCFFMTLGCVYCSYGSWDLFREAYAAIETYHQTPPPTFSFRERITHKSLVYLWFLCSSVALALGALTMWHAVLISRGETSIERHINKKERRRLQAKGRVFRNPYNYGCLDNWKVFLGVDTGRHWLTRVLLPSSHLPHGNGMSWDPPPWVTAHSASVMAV

Legend:
[1] = target: T1, DHHC-12-HA (HA-tagged murine DHHC-12), in neurons (mouse) (UniProt Q8VC90); assay: proximity ligation; in situ PLA (Duolink II) in primary hippocampal neurons 24 h after cotransfection of DHHC-12-HA and gephyrin-GFP
T1 sequence: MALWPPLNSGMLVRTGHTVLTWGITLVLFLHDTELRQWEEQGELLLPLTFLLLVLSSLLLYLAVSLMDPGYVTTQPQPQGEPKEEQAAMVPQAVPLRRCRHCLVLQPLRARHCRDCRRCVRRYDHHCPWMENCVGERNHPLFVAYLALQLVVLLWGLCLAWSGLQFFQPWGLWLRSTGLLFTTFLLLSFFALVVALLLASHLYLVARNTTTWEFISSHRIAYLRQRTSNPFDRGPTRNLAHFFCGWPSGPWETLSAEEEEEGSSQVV

[2] = target: T2, HA-DHHC-22 (murine) (mouse) (UniProt Q9CWU2); assay: co-IP; HEK293 lysates co-expressing gephyrin-myc and HA-tagged DHHC enzymes; protein-A/G Sepharose preloaded with HA-tag antibodies, 2 h at room temperature; IP buffer 50 mM Tris pH 7.4, 25 mM NaCl, 1% Triton X-100
T2 sequence: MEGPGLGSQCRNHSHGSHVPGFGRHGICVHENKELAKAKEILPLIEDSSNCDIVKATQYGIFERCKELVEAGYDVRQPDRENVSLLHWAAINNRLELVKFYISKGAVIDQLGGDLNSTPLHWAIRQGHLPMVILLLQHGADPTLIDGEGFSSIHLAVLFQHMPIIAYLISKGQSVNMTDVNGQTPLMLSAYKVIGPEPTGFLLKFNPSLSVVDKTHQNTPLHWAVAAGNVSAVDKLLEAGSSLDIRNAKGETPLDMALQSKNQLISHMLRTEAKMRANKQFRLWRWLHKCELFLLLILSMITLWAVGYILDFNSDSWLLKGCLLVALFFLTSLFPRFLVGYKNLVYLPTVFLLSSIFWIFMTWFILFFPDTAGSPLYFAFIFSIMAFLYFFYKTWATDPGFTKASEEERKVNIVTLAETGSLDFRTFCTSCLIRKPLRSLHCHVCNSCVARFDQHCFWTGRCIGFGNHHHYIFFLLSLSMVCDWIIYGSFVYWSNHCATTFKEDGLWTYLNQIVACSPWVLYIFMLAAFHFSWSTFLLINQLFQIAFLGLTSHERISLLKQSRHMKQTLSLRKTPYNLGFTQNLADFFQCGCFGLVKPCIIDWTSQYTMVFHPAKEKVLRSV

[3] = target: HA-DHHC-16 (murine) (mouse) (UniProt Q9ESG8); assay: as above
[4] = target: T3, HA-tagged DHHC12 (murine), in HEK293 (mouse) (UniProt Q8VC90); assay: as above
T3 sequence: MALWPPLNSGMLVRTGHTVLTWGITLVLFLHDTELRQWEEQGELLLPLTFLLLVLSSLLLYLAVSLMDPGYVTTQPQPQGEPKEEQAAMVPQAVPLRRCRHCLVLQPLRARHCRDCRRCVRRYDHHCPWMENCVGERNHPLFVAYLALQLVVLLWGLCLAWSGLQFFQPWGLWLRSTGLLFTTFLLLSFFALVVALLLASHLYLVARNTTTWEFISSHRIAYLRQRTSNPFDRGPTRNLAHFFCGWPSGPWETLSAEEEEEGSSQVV

Binder	binding [1]	binding [2]	binding [3]	binding [4]
gephyrin-GFP (EGFP-tagged gephyrin, wild type) (protein, UniProt Q03555 1-768) MATEGMILTNHDHQIRVGVLTVSDSCFRNLAEDRSGINLKDLVQDPSLLGGTISAYKIVPDEIEEIKETLIDWCDEKELNLILTTGGTGFAPRDVTPEKFPTFPFCGLQKGATKEVIEREAPGMALAMLMGSLNVTPLGMLSRPVCGIRGKTLIINLPGSKKGSQECFQFILPALPHAIDLLRDAIVKVKEVHDELEDLPSPPPPLSPPPTTSPHKQTEDKGVQCEEEEEEKKDSGVASTEDSSSSHITAAALAAKIPDSIISRGVQVLPRDTASLSTTPSESPRAQATSRLSTASCPTPKQIRRPDESKGVASRVGSLKVQSRCSSKENILRASHSAVDITKVARRHRMSPFPLTSMDKAFITVLEMTPVLGTEIINYRDGMGRVLAQDVYAKDNLPPFPASVKDGYAVRAADGPGDRFIIGESQAGEQPTQTVMPGQVMRVTTGAPIPCGADAVVQVEDTELIRESDDGTEELEVRILVQARPGQDIRPIGHDIKRGECVLAKGTHMGPSEIGLLATVGVTEVEVNKFPVVAVMSTGNELLNPEDDLLPGKIRDSNRSTLLATIQEHGYPTINLGIVGDNPDDLLNALNEGISRADVIITSGGVSMGEKDYLKQVLDIDLHAQIHFGRVFMKPGLPTTFATLDIDGVRKIIFALPGNPVSAVVTCNLFVVPALRKMQGILDPRPTIIKARLSCDVKLDPRPEYHRCILTWHHQEPLPWAQSTGNQMSSRLMSMRSANGLLMLPPKTEQYVELHKGEVVDVMVIGRL	binds	–	–	–
gephyrin-myc (Myc-tagged gephyrin) (protein, UniProt Q03555 1-768) MATEGMILTNHDHQIRVGVLTVSDSCFRNLAEDRSGINLKDLVQDPSLLGGTISAYKIVPDEIEEIKETLIDWCDEKELNLILTTGGTGFAPRDVTPEKFPTFPFCGLQKGATKEVIEREAPGMALAMLMGSLNVTPLGMLSRPVCGIRGKTLIINLPGSKKGSQECFQFILPALPHAIDLLRDAIVKVKEVHDELEDLPSPPPPLSPPPTTSPHKQTEDKGVQCEEEEEEKKDSGVASTEDSSSSHITAAALAAKIPDSIISRGVQVLPRDTASLSTTPSESPRAQATSRLSTASCPTPKQIRRPDESKGVASRVGSLKVQSRCSSKENILRASHSAVDITKVARRHRMSPFPLTSMDKAFITVLEMTPVLGTEIINYRDGMGRVLAQDVYAKDNLPPFPASVKDGYAVRAADGPGDRFIIGESQAGEQPTQTVMPGQVMRVTTGAPIPCGADAVVQVEDTELIRESDDGTEELEVRILVQARPGQDIRPIGHDIKRGECVLAKGTHMGPSEIGLLATVGVTEVEVNKFPVVAVMSTGNELLNPEDDLLPGKIRDSNRSTLLATIQEHGYPTINLGIVGDNPDDLLNALNEGISRADVIITSGGVSMGEKDYLKQVLDIDLHAQIHFGRVFMKPGLPTTFATLDIDGVRKIIFALPGNPVSAVVTCNLFVVPALRKMQGILDPRPTIIKARLSCDVKLDPRPEYHRCILTWHHQEPLPWAQSTGNQMSSRLMSMRSANGLLMLPPKTEQYVELHKGEVVDVMVIGRL	–	no binding	no binding	binds
